Our source for the binding values is publication PMC10303434.

Amino acid sequences for entries named in this document (tags omitted).
UniProt Q8NFJ5: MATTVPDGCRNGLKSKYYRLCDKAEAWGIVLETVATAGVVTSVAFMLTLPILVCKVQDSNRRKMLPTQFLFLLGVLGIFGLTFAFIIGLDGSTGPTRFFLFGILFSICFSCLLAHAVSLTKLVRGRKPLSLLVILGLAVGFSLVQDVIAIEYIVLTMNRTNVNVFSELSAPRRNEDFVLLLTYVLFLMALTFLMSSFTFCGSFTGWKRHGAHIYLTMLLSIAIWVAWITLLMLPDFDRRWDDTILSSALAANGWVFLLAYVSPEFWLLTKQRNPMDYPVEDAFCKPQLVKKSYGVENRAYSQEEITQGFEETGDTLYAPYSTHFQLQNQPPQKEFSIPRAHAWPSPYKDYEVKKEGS

No constants are given. Whether binding was seen depends on the method and setting. In cells and extracts the contact can be indirect. Some entries that bind do so weakly or less than the wild type.

This experiment deals with GPRC5A-GFP (human (cDNA from TREX-BCBL-1 cells)) (UniProt Q8NFJ5). Briefly: co-IP.

B1: FLOT1 (protein, UniProt O75955 1-427)
chain: MFFTCGPNEAMVVSGFCRSPPVMVAGGRVFVLPCIQQIQRISLNTLTLNVKSEKVYTRHGVPISVTGIAQVKIQGQNKEMLAAACQMFLGKTEAEIAHIALETLEGHQRAIMAHMTVEEIYKDRQKFSEQVFKVASSDLVNMGISVVSYTLKDIHDDQDYLHSLGKARTAQVQKDARIGEAEAKRDAGIREAKAKQEKVSAQYLSEIEMAKAQRDYELKKAAYDIEVNTRRAQADLAYQLQVAKTKQQIEEQRVQVQVVERAQQVAVQEQEIARREKELEARVRKPAEAERYKLERLAEAEKSQLIMQAEAEAASVRMRGEAEAFAIGARARAEAEQMAKKAEAFQLYQEAAQLDMLLEKLPQVAEEISGPLTSANKITLVSSGSGTMGAAKVTGEVLDILTRLPESVERLTGVSISQVNHKPLRTA
Turning to B1, the binding result was “binds”.
